Test results reported in doi:10.1101/2022.08.24.505075.
No constants are given. Whether binding was seen depends on the method and setting. In cells and extracts the contact can be indirect. These calls come from enrichment with a bait or labelling near it, and not all partners need be listed.

Sequences of proteins named here, by UniProt entry; tags and fusion partners are left off.
UniProt Q969H0: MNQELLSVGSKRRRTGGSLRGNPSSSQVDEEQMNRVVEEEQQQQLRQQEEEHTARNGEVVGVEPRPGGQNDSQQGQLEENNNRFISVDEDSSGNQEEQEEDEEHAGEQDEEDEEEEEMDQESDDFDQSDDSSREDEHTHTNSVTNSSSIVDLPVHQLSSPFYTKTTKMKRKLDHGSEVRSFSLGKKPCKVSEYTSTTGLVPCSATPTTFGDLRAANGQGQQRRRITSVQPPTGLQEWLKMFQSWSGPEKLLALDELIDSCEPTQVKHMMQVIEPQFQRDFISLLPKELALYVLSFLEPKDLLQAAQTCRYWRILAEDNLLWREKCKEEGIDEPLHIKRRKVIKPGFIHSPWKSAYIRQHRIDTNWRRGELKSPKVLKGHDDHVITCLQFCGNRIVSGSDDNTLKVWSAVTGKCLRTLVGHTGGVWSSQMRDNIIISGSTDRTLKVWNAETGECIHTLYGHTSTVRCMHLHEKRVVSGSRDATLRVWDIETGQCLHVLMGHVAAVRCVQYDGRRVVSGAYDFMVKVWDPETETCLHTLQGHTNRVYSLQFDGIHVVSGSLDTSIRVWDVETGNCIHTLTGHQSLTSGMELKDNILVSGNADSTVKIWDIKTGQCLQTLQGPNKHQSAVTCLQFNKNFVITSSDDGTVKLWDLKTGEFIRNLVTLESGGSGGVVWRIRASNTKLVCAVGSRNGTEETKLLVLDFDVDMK
UniProt P01106: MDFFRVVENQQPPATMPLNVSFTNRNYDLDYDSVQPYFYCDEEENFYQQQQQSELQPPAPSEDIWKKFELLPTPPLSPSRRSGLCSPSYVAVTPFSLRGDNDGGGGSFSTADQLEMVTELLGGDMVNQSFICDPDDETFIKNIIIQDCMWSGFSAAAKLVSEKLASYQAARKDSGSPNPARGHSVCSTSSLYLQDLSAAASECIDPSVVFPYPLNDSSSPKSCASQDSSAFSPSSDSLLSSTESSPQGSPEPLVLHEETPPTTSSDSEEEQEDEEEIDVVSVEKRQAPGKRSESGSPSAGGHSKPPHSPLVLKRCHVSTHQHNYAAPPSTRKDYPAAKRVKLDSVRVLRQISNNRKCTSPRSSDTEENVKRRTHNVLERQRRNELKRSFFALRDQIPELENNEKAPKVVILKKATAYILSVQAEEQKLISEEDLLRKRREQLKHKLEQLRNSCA

Biological target: Flag-tagged FBXW7α (human) (UniProt Q969H0)
Test: affinity purification with mass spectrometry

binding: binds
Substance: c-Myc (from UniProt P01106 1-454)
